Earlier results on 1 molecule are cited in paper PMC3322284 (Journal of Pharmacological and Toxicological Methods, 2012).

The conditions of the series: humans; ref Fenner et al., 2009; cited from earlier work.

As to `CCCCc1oc2ccccc2c1C(=O)c1cc(I)c(OCCN(CC)CC)c(I)c1` [Amiodarone], the “[I] peak plasma concentration of drug at steady state” value is 2.2 µM.
